# From PubChem BioAssay AID1347076 (National Center for Advancing Translational Sciences (NCATS), 2019)
# The campaign covered roughly 400,000 compounds. About 13,000 (3.2%) were called active. Inconclusive results, whose numbers are uncertain, are shown with a selection of clear calls. Calls follow the shape of the dose curve; as a rule, active = well fitted cell-killing curve with a large enough effect; inconclusive = small, poorly fitted or top-dose-only effect, or effect the other way; inactive = flat fitted curve, though single readings scatter. A potency beside an inconclusive call is a rough fit, not a confirmed value.
# Assay: qHTS assay for MDR1-selective chemotherapeutics: Primary screen using the drug-selected MDR subline cells KB-V1; also: nearly all actives have a fitted effect of over 60% in size
# Settings: KB-V1 MDR cells viability, CellTiter-Glo, 72 h; activity change, negative = cytotoxicity: at 46.1 µM (top of the series)
# How it was run: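 Cytotoxicity via CellTiter-Glo luminescence after 72 h compound exposure at 37 degrees C. Cells: drug-selected KB-V1 line, DMEM phenol-red free plus 10% FBS. Compounds tested at multiple concentrations; normalized data fitted to concentration-effect curves.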
# % is scaled to controls: 0 for no effect and ±100 for the full control effect; potency is read from the fitted curve at half-maximal effect.
Structure (SMILES),Potency,"activity change, negative = cytotoxicity"
Cc1noc(C)c1CSc1nc2ccccc2n1CCc1ccccc1,"inconclusive: 18.4 µM [cytotoxic, partial curve, poor fit]",
COC(=O)c1c(SCC(=O)Nc2cccc(C(F)(F)F)c2)[nH]c2ccccc2c1=O,"inconclusive: 25.9 µM [cytotoxic, single point]",
COC(=O)C[C@H]1C=C[C@H](NC(=O)Nc2ccccc2OC)[C@@H](CO)O1,,inactive: -3.27%
Cc1ccccc1N1CCN(CCC(=O)Nc2ccc(F)cc2)CC1,active: 18.4 µM,
Cc1ccc(N(NC(=O)C(O)(c2ccccc2)c2ccccc2)C(=O)CCl)cc1,"inconclusive: 16.4 µM [cytotoxic, single point]",
CCOc1ccc(S(=O)(=O)N(C)c2ccc(OCC(=O)NCC3CCCCC3)cc2)cc1,"inconclusive: 20.6 µM [cytotoxic, partial curve]",
CCOc1ccc(CCNC(=O)C2CC(=O)N(Cc3ccc(C)cc3)C2)cc1OCC (stereo not drawn),"inconclusive: 23.1 µM [cytotoxic, single point]",
O=[N+]([O-])c1ccc(CS(=O)Cc2ccccc2)cc1 (stereo not drawn),"inconclusive: 23.1 µM [cytotoxic, partial curve, poor fit]",
COc1ccc(-n2c(=O)c3ccccc3n(Cc3ccc(F)cc3Cl)c2=O)cc1OC,"inconclusive: 29.1 µM [rising, single point]",
Cc1cccc(N2CCN(c3nc4ccccc4c4nc(-c5ccccc5)nn34)CC2)c1C,"inconclusive: 29.1 µM [rising, single point]",
O=c1[nH]c(-c2ccc(Cl)cc2)cs1,"inconclusive: 14.6 µM [cytotoxic, partial curve]",
O=C1c2ccccc2C(c2nnnn2Cc2ccccc2)N1CCc1ccc(O)cc1 (stereo not drawn),"inconclusive: 18.4 µM [cytotoxic, single point]",
CCc1ccccc1N1CC(c2nnc(NC(=O)c3ccco3)s2)CC1=O (stereo not drawn),,inactive: 7.17%
COc1ccc(OC)c(/C=N/NC(=O)C(=O)N2CCCC2)c1,,inactive: 12.8%
Nc1cccc2c1C(=O)c1ccc(Cl)cc1C2=O,"inconclusive: 29.1 µM [cytotoxic, single point]",
Cn1c(SCC(=O)NC(=O)NCc2ccccc2)nnc1C(F)(F)F,,inactive: 22.5%
CCC(=O)Nc1ccc2c(c1)OC[C@@H](C)NC[C@@H](C)[C@@H](OC)CN(C)C2=O,,inactive: 6.09%
O=C(Nc1ccccc1C(=O)NCCc1ccccc1)c1ccco1,"inconclusive: 20.6 µM [cytotoxic, single point]",
COc1ccc(/C=C/C(=O)OC(C)CN2CCOCC2)cc1 (stereo not drawn),"inconclusive: 18.4 µM [cytotoxic, partial curve]",
COc1ccc(C2CC(=O)c3cc(-c4nc(-c5ccc(Cl)cc5)cs4)c(=O)[nH]c3C2)cc1 (stereo not drawn),,inactive: 14.6%
COc1ccccc1C(=O)NCCC(=O)NCCc1ccccc1,"inconclusive: 32.6 µM [cytotoxic, partial curve, poor fit]",
Cc1ccc(S(=O)(=O)N(CC(=O)Nc2ccc(Cl)c([N+](=O)[O-])c2)C2CCCCC2)cc1,active: 4.61 µM,
CCOc1ccc(CNC(=O)C2CCN(C3=NS(=O)(=O)C(c4ccc(C)cc4)=C3CC)CC2)cc1,,inactive: -2.25%

# In another format: entries from further up.
Structure (SMILES)	Potency	activity change, negative = cytotoxicity
COC(=O)C[C@H]1C=C[C@H](NC(=O)Nc2ccccc2OC)[C@@H](CO)O1		inactive: -3.27%
Cc1ccccc1N1CCN(CCC(=O)Nc2ccc(F)cc2)CC1	active: 18.4 µM	
Cc1ccc(N(NC(=O)C(O)(c2ccccc2)c2ccccc2)C(=O)CCl)cc1	inconclusive: 16.4 µM [cytotoxic, single point]	
CCOc1ccc(S(=O)(=O)N(C)c2ccc(OCC(=O)NCC3CCCCC3)cc2)cc1	inconclusive: 20.6 µM [cytotoxic, partial curve]	

# (more compounds)

Structure (SMILES),Potency,"activity change, negative = cytotoxicity"
O=C(NCCC1=CCCCC1)c1c(O)nc2sccn2c1=O,active: 5.17 µM,
COc1ccc(C2COC(=O)C2=N)c(NC(=O)c2ccccc2)c1 (stereo not drawn),"inconclusive: 13 µM [cytotoxic, partial curve, poor fit]",
COc1cc(NC(=O)c2cc(-c3ccccc3O)no2)cc(OC)c1OC,"inconclusive: 20.6 µM [cytotoxic, single point]",
NS(=O)(=O)c1ccc(-c2ccc(C=NC3CCS(=O)(=O)C3)o2)cc1 (stereo not drawn),,inactive: 10.7%
O=C(Nc1ccc2c(c1)CCO2)Nc1nnc([C@H]2C[C@H](O)[C@@H](CO)O2)s1,,inactive: 11.6%
O=C(COC(=O)c1ccc2c(c1[N+](=O)[O-])C(=O)c1ccccc1C2=O)NC1CC1,,inactive: 4.86%
COc1ccc(CC2(CO)CCN(S(=O)(=O)c3c(C)nn(C)c3C)CC2)cc1,"inconclusive: 25.9 µM [cytotoxic, single point]",
COc1ccccc1N(C)S(=O)(=O)c1ccc(C(=O)N(CC(N)=O)C(C)C)cc1,"inconclusive: 23.1 µM [rising, partial curve, poor fit]",
CCCc1cc(NC(=O)CCl)n(-c2ccccc2)n1,"inconclusive: 18.4 µM [cytotoxic, single point]",
COc1ccccc1N1CSC2=C(C#N)C(c3ccc(SC)cc3)CC(=O)N2C1 (stereo not drawn),"inconclusive: 29.1 µM [rising, single point]",
CCN(CC)CCCN(C)C(=O)Cn1nc(Cc2ccncc2)c2ccccc2c1=O,"inconclusive: 32.6 µM [rising, single point]",
CCc1ccc2nc(-c3cccc(C)c3)nc(SCC(=O)NCC3CCCO3)c2c1 (stereo not drawn),active: 2.59 µM,
COc1ccc(NS(=O)(=O)CC23CCC(CC2=O)C3(C)C)cc1 (stereo not drawn),"inconclusive: 16.4 µM [cytotoxic, single point]",
CC(CCc1ccccc1)NC(=O)c1ccccc1 (stereo not drawn),"inconclusive: 32.6 µM [cytotoxic, single point]",
Cc1nc(NC(=O)C23CC4CC(CC(C4)C2)C3)sc1Cc1ccc2c(c1)OCO2,"inconclusive: 10.3 µM [cytotoxic, partial curve]",
O=C(Cc1c(F)cccc1Cl)Nc1ccccc1C(=O)N1CCCCC1,"inconclusive: 8.2 µM [cytotoxic, partial curve]",
c1ccc(Nc2nc(CSc3ncn[nH]3)cs2)cc1,"inconclusive: 29.1 µM [cytotoxic, single point]",
O=C(NNC(=O)C1CCN(c2ncccn2)CC1)c1ccc(F)cc1,"inconclusive: 14.6 µM [rising, partial curve, poor fit]",
CSc1nsc(SC)c1CO,"inconclusive: 11.6 µM [rising, partial curve, poor fit]",
COc1ccc(C(=O)CSc2nn3c(=O)c(C(C)(C)C)nnc3s2)cc1,"inconclusive: 16.4 µM [cytotoxic, single point]",
CC(C)(C)NC(=O)Cn1cc(C#N)c2cc(Br)ccc21,"inconclusive: 8.2 µM [cytotoxic, partial curve]",
COc1cccc(N2C(=O)CC(N3CCN(c4ccc([N+](=O)[O-])cc4)CC3)C2=O)c1 (stereo not drawn),"inconclusive: 18.4 µM [rising, single point]",
O=c1c2ccccc2c(=O)n(-c2ccccc2)n1CCCCBr,,inactive: -19.5%

Structure (SMILES),Potency,"activity change, negative = cytotoxicity"
COc1ccc(/C=C2/CCCC(CN(C)C)C2=O)cc1 (stereo not drawn),"inconclusive: 18.4 µM [cytotoxic, single point]",
CCOc1cc(S(=O)(=O)n2cc(-c3ccc(F)cc3)c(N)n2)cc(OCC)c1OCC,active: 16.4 µM,
COc1ccc(C2SCCN2S(=O)(=O)c2ccc(NC(C)=O)cc2)cc1 (stereo not drawn),"inconclusive: 29.1 µM [cytotoxic, single point]",
CCOC(=O)c1ccc(N2C(=O)c3n[nH]c(-c4cccs4)c3C2c2ccc(O)c(OC)c2)cc1 (stereo not drawn),,inactive: -22.7%
CCN(C(=O)CCS(=O)(=O)c1cccc2nsnc12)c1cccc(C)c1,"inconclusive: 13 µM [cytotoxic, partial curve]",
Cc1noc(C)c1COc1ccc(C(=O)NCC(c2c(F)cccc2Cl)N(C)C)cc1 (stereo not drawn),"inconclusive: 6.51 µM [cytotoxic, partial curve]",
COc1ccccc1OS(=O)(=O)c1ccc(NC(C)=O)cc1,,inactive: -21.4%
Cc1cc(=O)oc2ccc(OCC(=O)N(Cc3ccc(F)cc3)Cc3ccco3)cc12,"inconclusive: 10.3 µM [cytotoxic, partial curve, poor fit]",
C[C@@H]1CN([C@@H](C)CO)C(=O)CCCn2nncc2CO[C@@H]1CN(C)S(=O)(=O)c1ccc(C#N)cc1,"inconclusive: 1.16 µM [rising, full curve, poor fit]",
COc1ccc(S(=O)(=O)N2CCCCC2)cc1NC(=O)C1CC(=O)N(Cc2ccccc2)C1 (stereo not drawn),,inactive: -2.76%
Cc1cc(O)c(C(c2cccc(F)c2)N2CCC(C)CC2)c(=O)n1Cc1ccco1 (stereo not drawn),"inconclusive: 20.6 µM [cytotoxic, single point]",
CCc1nc2c(OCc3ccc(Cl)cc3)cccn2c1N(C=O)Cc1ccc(OC)cc1,"inconclusive: 1.46 µM [cytotoxic, full curve]",
C=C1CCC[C@]2(C)C[C@H]3OC(=O)C(CN(C)CC(OC)OC)[C@H]3CC12 (stereo partly drawn),"inconclusive: 13 µM [cytotoxic, partial curve]",
CC(C)CN(C(=O)C1=COCCO1)c1c(N)n(Cc2ccccc2)c(=O)[nH]c1=O,"inconclusive: 29.1 µM [rising, partial curve, poor fit]",
O=C(Nc1cccc(C(F)(F)F)c1)c1noc2c1CCc1ccccc1-2,,inactive: -6.3%
CC1=C(C)CC(C(=O)Nc2nccs2)C(C(=O)O)C1 (stereo not drawn),,inactive: 5.89%
Cc1ccc(C(=O)OCC(=O)NC(C)c2ccccc2)cc1C (stereo not drawn),"inconclusive: 29.1 µM [cytotoxic, single point]",
Cc1cccc(C(=O)N(Cc2nc3ccccc3c(=O)[nH]2)C2CCCC2)c1,"inconclusive: 5.8 µM [cytotoxic, partial curve]",
Cc1cccc(NC(=O)CSc2nc3c(c(=O)[nH]2)CN(Cc2ccc4c(c2)OCO4)CC3)c1C,,inactive: 0%
COc1ccc(NC2CCCN(C(=O)c3cccc(C)n3)C2)cc1OC (stereo not drawn),"inconclusive: 3.66 µM [rising, partial curve, poor fit]",
O=S(=O)(Nc1ccc(Br)cc1)c1cccc2nonc12,,inactive: 7.76%
COc1ccc(C(=O)NC2=C(C#N)CCC2)cc1OC,"inconclusive: 23.1 µM [cytotoxic, single point]",
